The test concerns HEK293A TEAD-LUC reporter. Kind of test: TEAD-luciferase reporter activity (YAP activation), robust Z score vs plate; higher = stronger YAP/TEAD activation. The conditions noted are these: 24 h.

Each structure is given as a SMILES string. Structures can show the parent of a compound that is named as a salt. The list shows a part of the results. Repeats in this data set agree poorly, so a single value says little.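 Human kidney-derived cells stably carry a construct in which eight TEAD-binding elements drive luciferase, measured by luminescence in a drug-repurposing library screen. A hit is any compound whose signal exceeds the plate mean by more than five robust Z scores.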

On to `CCOC(=O)C1(c2ccccc2)CCN(CCc2ccc(NC(=O)C(N)CC(C)C)cc2)CC1` (stereo not drawn), for which the TEAD-luciferase reporter activity by setting is: (compound concentration: 200 nM) inactive: -0.208; (compound concentration: 2 uM) inactive: -0.421; (compound concentration: 10 uM) inactive: 1.75.
For `Clc1cc(N2C[C@@H]3CN[C@@H]3C2)cnc1Cl`, in that order: inactive: -0.796, inactive: -1.07 and inactive: 4.56.
As to `O=C1CN=C(c2ccccc2F)c2cc(Cl)ccc2N1CC(O)CO` (stereo not drawn), the TEAD-luciferase reporter activity was inactive: 0.764 (compound concentration: 200 nM), inactive: -1.74 (compound concentration: 2 uM) and inactive: 1.52 (compound concentration: 10 uM).
`NC(=O)c1ncn2c1CN=C(c1ccccc1Cl)c1ccccc1-2`: the TEAD-luciferase reporter activity runs as follows: (compound concentration: 200 nM) inactive: -0.656; (compound concentration: 2 uM) inactive: -0.726; (compound concentration: 10 uM) inactive: -0.222.
As for `Cc1cc(C2=NOC(c3cc(Cl)cc(Cl)c3)(C(F)(F)F)C2)ccc1C(=O)NCC(=O)NCC(F)(F)F` (stereo not drawn) [Fluralaner], the TEAD-luciferase reporter activity (compound concentration: 200 nM) is inactive: 3.14, the TEAD-luciferase reporter activity (compound concentration: 2 uM) was inactive: -0.242 and the TEAD-luciferase reporter activity (compound concentration: 10 uM) was inactive: 0.19.
For `Oc1ccc(Cl)cc1Cc1cc(Cl)ccc1O`, the TEAD-luciferase reporter activity reads like this: (compound concentration: 200 nM) inactive: -1.21; (compound concentration: 2 uM) inactive: -0.315; (compound concentration: 10 uM) inactive: 1.53.
Regarding `c1ccc2c(c1)CCN1CCNCC21` (stereo not drawn), the TEAD-luciferase reporter activity runs as follows: (compound concentration: 200 nM) inactive: 0.351; (compound concentration: 2 uM) inactive: -1.25; (compound concentration: 10 uM) inactive: 0.145.
In the case of `CC[C@@H](C(=O)O)[C@@H]1O[C@@H]([C@@H](C)[C@H](O)[C@H](C)C(=O)[C@H](CC)[C@H]2O[C@]3(C=C[C@@H](O)[C@]4(CC[C@@](C)([C@H]5CC[C@](O)(CC)[C@H](C)O5)O4)O3)[C@H](C)C[C@@H]2C)[C@@H](C)C[C@@H]1C` [Narasin], the TEAD-luciferase reporter activity by setting is: (compound concentration: 200 nM) inactive: -0.436; (compound concentration: 2 uM) active: 17.1; (compound concentration: 10 uM) inactive: -0.232.
For `CC(C)N(CCc1c[nH]c2ccccc12)C(C)C`, in that order: inactive: 2.11, inactive: 0.511 and active: 10.5.
For `CC(=O)O[C@H]1CC[C@H]2[C@@H]3CC=C4C[C@@H](O)CC[C@]4(C)[C@H]3CC[C@]12C`, in that order: inactive: -1.28, inactive: 0.793 and inactive: 1.11.
On the same counts, the results for `OCCCCO` [Tetramethylene glycol] are inactive: 0.16, inactive: -0.818 and inactive: -2.01.
Turning to `O=S1(N2CC2)=NP(N2CC2)(N2CC2)=NP(N2CC2)(N2CC2)=N1` (stereo not drawn), the TEAD-luciferase reporter activity runs as follows: (compound concentration: 200 nM) inactive: -1.21; (compound concentration: 2 uM) inactive: 1.45; (compound concentration: 10 uM) inactive: -0.878.
Consider `Cc1ccc2c(c1)[C@]13CCCC[C@@H]1[C@H](C2)N(C)CC3` [Dimemorfan phosphate], for which the TEAD-luciferase reporter activity by setting is: (compound concentration: 200 nM) inactive: 3.46; (compound concentration: 2 uM) inactive: 0.0242; (compound concentration: 10 uM) inactive: -0.97.
On the same counts, the results for `CC(C)NC(C)Cc1ccc(O)cn1` (stereo not drawn) [Prisotinol] are inactive: -1.3, inactive: -0.121 and inactive: 1.98.
Turning to `O=C(O)CCc1csc(NC(=O)c2cc3c(n(CC4CCCCC4)c2=O)CCCCCC3)n1`, the TEAD-luciferase reporter activity is inactive: -3.08 (compound concentration: 200 nM), inactive: 0.229 (compound concentration: 2 uM) and inactive: 2.8 (compound concentration: 10 uM).
Consider `c1ccc2c(c1)Sc1ccccc1N2CC1CN2CCC1CC2` (stereo not drawn) [Mequitazine], for which the TEAD-luciferase reporter activity reads like this: (compound concentration: 200 nM) inactive: -1.31; (compound concentration: 2 uM) inactive: -1.42; (compound concentration: 10 uM) inactive: 0.924.
`CNC1=Nc2ccc(Cl)cc2C(c2ccccc2)=[N+]([O-])C1` [Chlordiazepoxide hydrochloride]: the TEAD-luciferase reporter activity (compound concentration: 2 uM) is inactive: -0.635.
As to `CNC1=Nc2ccc(Cl)cc2C(c2ccccc2)=[N+]([O-])C1`, the TEAD-luciferase reporter activity runs as follows: (compound concentration: 200 nM) inactive: -0.878; (compound concentration: 10 uM) inactive: 0.565.
With `c1cnc2c(c1)O[C@@H]1CCN3CC[C@]1(C2)C3` [Dianicline], the TEAD-luciferase reporter activity is, setting by setting: (compound concentration: 200 nM) inactive: -0.683; (compound concentration: 2 uM) inactive: -1.63; (compound concentration: 10 uM) inactive: 0.595.
On the same counts, the results for `O=C(O)CCC(CP(=O)(O)O)C(=O)O` (stereo not drawn) are inactive: 1.18, inactive: -1.99 and inactive: 0.684.
As for `COc1cccc([C@@]2(O)C[C@H](O)CC[C@@H]2CN(C)C)c1`, the TEAD-luciferase reporter activity is, setting by setting: (compound concentration: 200 nM) inactive: 0.137; (compound concentration: 2 uM) inactive: 0.17; (compound concentration: 10 uM) inactive: 1.8.
Take `CCCCN(CCCC)CCc1ccc(O)c(O)c1`: the TEAD-luciferase reporter activity by setting is: (compound concentration: 200 nM) inactive: -1.06; (compound concentration: 2 uM) inactive: -2.66; (compound concentration: 10 uM) inactive: 0.0712.
`CC(CCc1ccccc1)NC(C)C(O)c1ccc(O)cc1` (stereo not drawn) [nylidrin hydrochoride]: the TEAD-luciferase reporter activity reads like this: (compound concentration: 200 nM) inactive: -0.122; (compound concentration: 2 uM) inactive: 4.8; (compound concentration: 10 uM) inactive: 3.17.
`Oc1cccc(C2CNCCO2)c1` (stereo not drawn): the TEAD-luciferase reporter activity by setting is: (compound concentration: 200 nM) inactive: -0.691; (compound concentration: 2 uM) inactive: -0.158; (compound concentration: 10 uM) inactive: 0.55.
Regarding `NC(=O)[C@H](CC1CC1)NC(=O)c1cnc(N2CC(F)(F)C2)c(OCC2CC2)n1`, the TEAD-luciferase reporter activity was active: 7.86 (compound concentration: 200 nM), inactive: -0.962 (compound concentration: 2 uM) and inactive: -1.64 (compound concentration: 10 uM).
As for `CC(=O)O[C@H]1C[C@H](O[C@H]2[C@@H](O)C[C@H](O[C@H]3[C@@H](O)C[C@H](O[C@H]4CC[C@@]5(C)[C@H](CC[C@@H]6[C@@H]5CC[C@]5(C)[C@@H](C7=CC(=O)OC7)[C@@H](O)C[C@]65O)C4)O[C@@H]3C)O[C@@H]2C)O[C@H](C)[C@H]1O[C@@H]1O[C@H](CO)[C@@H](O)[C@H](O)[C@H]1O`, the TEAD-luciferase reporter activity (compound concentration: 200 nM) is inactive: -0.282, the TEAD-luciferase reporter activity (compound concentration: 2 uM) is inactive: -0.0851 and the TEAD-luciferase reporter activity (compound concentration: 10 uM) is active: 11.7.
For the molecule `C[C@@H](NC(=O)[C@@H](N)Cc1ccc(O)cc1)C(=O)NCC(=O)N(C)[C@@H](Cc1ccccc1)C(=O)N[C@H](CO)CCS(C)=O` (stereo partly drawn), the TEAD-luciferase reporter activity by setting is: (compound concentration: 200 nM) inactive: 1.21; (compound concentration: 2 uM) inactive: -0.831; (compound concentration: 10 uM) inactive: -1.45.
